No constants are given. Whether binding was seen depends on the method and setting. Some entries that bind do so weakly or less than the wild type.
Experiments:
[1] = target: T1, dense aggregated (Thioflavin S positive) medin amyloid deposits in human aorta (human); assay: immunohistochemistry on thoracic aorta samples
T1 sequence (peptide): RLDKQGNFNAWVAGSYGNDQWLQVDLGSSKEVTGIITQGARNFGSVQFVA

[2] = target: T2, endogenous human medin in patient aorta tissue (human); assay: immunohistochemistry on thoracic aorta samples
T2 sequence (peptide): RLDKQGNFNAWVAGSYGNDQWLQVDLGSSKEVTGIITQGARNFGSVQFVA

[3] = target: T1, dense aggregated (Thioflavin S positive) medin amyloid deposits in human aorta (human); assay: immunohistochemistry on thoracic aorta samples of aneurysm patients
[4] = target: T2, endogenous human medin in patient aorta tissue (human); assay: as above
[5] = target: T1, dense aggregated (Thioflavin S positive) medin amyloid deposits in human aorta (human); assay: immunohistochemistry on aorta samples of Marfan syndrome patients
[6] = target: T2, endogenous human medin in patient aorta tissue (human); assay: as above

Measured: binding

B1: mouse monoclonal antibody 6B3 (antibody, V domains shown)
VH: QVTLKESGPGILQPSQTLSLTCSFSGFSLSTSDMGVGWIRQPSGKGLEWLAHIWWNDNKYYNIALKNRLTVSKDTSNNQVFLKIASVDTADTATYYCARLVGSWFAYWGQGTLVTVSA
VL: DIQMTQTTSSLSASLGDRVTISCRASQDISNFLSWYHQKPDGTVKLLIYYTSRLHSGVPPRFSGSGSGTDYSLTISNLEQEDIATYFCQQGKTLPPTFGGGTKLEIK
notes: Mouse hybridoma IgG raised against full-length human medin; also called m6B3; PRT6B3
binds: all assays above

Reference: US20170121397A1 (PROTHENA BIOSCIENCES, published 2017)
